From patent publication US7900639B2, “Reconstituted tobaccos containing additive materials” (R. J. Reynolds Tobacco Company, priority 2003, dated 2011)

Legend:
[1] = Transfer rate of tocopherol from tobacco into mainstream smoke
[2] = Example 8; cased blend with about 2% tocopherol compound

CC(=O)Oc1c(C)c(C)c2c(c1C)CCC(C)(CCCC(C)CCCC(C)CCCC(C)C)O2 (stereo not drawn) [d-, l-alpha tocopherol acetate]
transfer of d-, l-alpha tocopherol into mainstream smoke ([1]; Example 9, d-, l-alpha tocopherol acetate added about 0.5%): about 1.6%

Cc1c(C)c2c(c(C)c1O)CCC(C)(CCCC(C)CCCC(C)CCCC(C)C)O2 (stereo not drawn) [d-, l-alpha tocopherol]
transfer of d-, l-alpha tocopherol into mainstream smoke ([1]; Example 9, d-, l-alpha tocopherol added about 1% to blend by injection): about 10.3%
transfer of d-, l-alpha tocopherol into mainstream smoke ([1]; Example 11, neat additive about 1% of blend, FTC smoking conditions): about 7%
harshness, hot sensation, bitter aftertaste and overall aftertaste relative to cigarettes with lesser levels [2]: reduced

Cc1c(C)c2c(c(C)c1OC(=O)CCC(=O)O)CCC(C)(CCCC(C)CCCC(C)CCCC(C)C)O2 (stereo not drawn) [d-, l-alpha tocopherol succinate]
transfer of d-, l-alpha tocopherol into mainstream smoke ([1]; Example 9, d-, l-alpha tocopherol succinate added about 4%): about 11.6%

Cc1c(C)c2c(c(C)c1O)CC[C@@](C)(CCC[C@H](C)CCC[C@H](C)CCCC(C)C)O2 [d-alpha tocopherol]
transfer of d-alpha tocopherol into mainstream smoke ([1]; Example 9, no added tocopherol, only endogenous tocopherol compound): about 17.4%
